Assay results from PMC5749897.
Results are given in words; binding and its absence hold for the method and conditions named. Some results given as binding are weak or reduced against the parent protein; the word gives no strength.

Protein sequences, listed by entry. Tags and fused reporters are not part of them. Residues count along the entry.
UniProt P27958, residues 384-746: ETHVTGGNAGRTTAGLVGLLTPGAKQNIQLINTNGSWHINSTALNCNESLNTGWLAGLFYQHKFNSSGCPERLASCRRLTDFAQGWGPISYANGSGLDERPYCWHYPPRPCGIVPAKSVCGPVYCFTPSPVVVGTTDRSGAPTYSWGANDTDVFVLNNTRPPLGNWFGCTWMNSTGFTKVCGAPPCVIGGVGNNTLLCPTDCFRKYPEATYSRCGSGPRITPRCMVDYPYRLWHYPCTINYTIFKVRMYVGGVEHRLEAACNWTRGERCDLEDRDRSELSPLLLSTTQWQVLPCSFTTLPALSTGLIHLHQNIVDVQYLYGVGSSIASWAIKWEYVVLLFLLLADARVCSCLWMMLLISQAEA

Molecular target: E2 on purified HCV pseudoparticles (HCVpp) (hepatitis C virus genotype 1a, strain H77) (UniProt P27958)
Assay: non-reducing and reducing SDS-PAGE with immunoblot

E2 on purified HCV pseudoparticles (HCVpp) (from UniProt P27958 384-746)
binding: binds
